Earlier results in patent US20130197047A1, “OPHTHALMIC COMPOSITIONS OF PARASYMPATHETIC STIMULANTS AND ANTI-INFLAMMATORIES FOR USE IN THE TREATMENT OF PRESBYOPIA” (priority 2006, published 2013).
At least one structure is not confirmed: it was looked up by name or label, or the drawing left a doubt.

Tested on: presbyopic patient
Settings: does not solve blurred distant vision; cited from earlier work

CC(=O)OCC[N+](C)(C)C [acetylcholine]
result of topical application to presbyopic patient: poor results
